The list shows a part of the results.

Protein sequences, listed by entry. Tags and fused reporters are not part of them.
UniProt Q0JBA9, entry or part of it: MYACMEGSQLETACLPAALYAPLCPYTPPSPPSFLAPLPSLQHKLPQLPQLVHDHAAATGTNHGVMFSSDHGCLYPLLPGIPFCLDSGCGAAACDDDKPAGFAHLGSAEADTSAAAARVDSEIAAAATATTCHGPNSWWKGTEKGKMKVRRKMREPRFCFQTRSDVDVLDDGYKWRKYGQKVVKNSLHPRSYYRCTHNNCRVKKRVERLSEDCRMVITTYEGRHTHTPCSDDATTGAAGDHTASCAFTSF

The test has as its target OsWRKY34 (Oryza sativa, UniProt Q0JBA9 1-250). Kind of test: protein-binding microarray (RPBM); PBS, 2% BSA, 51.3 ng/ul salmon testes DNA, 50 uM zinc acetate, 200 nM TF, 25 C, 1 h; high values mean tight binding. To be noted: protein: recombinant; tags: N-terminal polyhistidine and DsRed monomer fusion (pET32a); label: CyDye5-dUTP incorporated in the synthesized complementary strand; 3' TTTTT single-stranded linker to array surface; dsDNA, one strand shown. The method in brief:
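The binding signal is fluorescence intensity per feature, in arbitrary units, read on an Axon 4000B scanner. Polyhistidine- and DsRed-tagged transcription factors (N-terminal fusions) from E. coli BL21-CodonPlus were purified on Ni–NTA and applied at 200 nM for 1 h at 25 °C to a double-stranded, BSA-blocked custom Agilent array in buffer with 50 µM zinc acetate.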
With “TTAAAGTTGGACAAGGAAAACCAGTCTTTGACTTTTTTTTCGGAGTCACCTAGTGCAG”, the binding signal is 8660 fluorescence intensity (a.u.).

Regarding “AATTCGTTCTTGTAGTCTATTTTGATCGGTCGGTTGTTGACGGAGTCACCTAGTGCAG”, the binding signal is 13300 fluorescence intensity (a.u.).

Turning to “GTCTAACAGGGCCGCTTCCCGTGGTCGATCTTACCAGGCCCGGAGTCACCTAGTGCAG”, the binding signal was 8480 fluorescence intensity (a.u.).

As for “ATTGGGGCGGCGGTGGCGGGCTAGGGTTTCGTAGATTCGACGGAGTCACCTAGTGCAG”, the binding signal was 9960 fluorescence intensity (a.u.).

As for “ATCGGGGAAGGGTCGTTCGGGGTGGTGTACTCCGGCGCGGCGGAGTCACCTAGTGCAG”, the binding signal was 16000 fluorescence intensity (a.u.).

As to “GATTTTTTCCCTGCTCTTTGATCTCCTCCTCCTCTCTCTCCGGAGTCACCTAGTGCAG”, the binding signal is 8120 fluorescence intensity (a.u.).

With “TCTCGCGTTTCTTGCTGGCTGACGATCCTTCCACATACAGCGGAGTCACCTAGTGCAG”, the binding signal was 9520 fluorescence intensity (a.u.).

Regarding “CGGCTCTTCGGCGCGTGTCACGTAAGAGAGTCGGCCAACCCGGAGTCACCTAGTGCAG”, the binding signal is 8540 fluorescence intensity (a.u.).

With “GCAACTCCTCACCTCTGCATTGTCTCCGCGTAGCTGAGCACGGAGTCACCTAGTGCAG”, the binding signal was 8220 fluorescence intensity (a.u.).

In the case of “TTCGCCACATTCCTTTTTTTTCAATCGGACAGATTCTTTTCGGAGTCACCTAGTGCAG”, the binding signal was 8790 fluorescence intensity (a.u.).

On to “ACTCGTTCCCGCCCGTAATGTCAACTTGGATTAATATATACGGAGTCACCTAGTGCAG”, for which the binding signal is 9300 fluorescence intensity (a.u.).

Consider “CTCCTACCTCTCATTTGTTTGGAGTAACTTTTGTTTCGCACGGAGTCACCTAGTGCAG”, for which the binding signal was 8240 fluorescence intensity (a.u.).

Turning to “GCATAATTAAGAACATATACTTTCCCAGCATGTTCTGTGACGGAGTCACCTAGTGCAG”, the binding signal is 10300 fluorescence intensity (a.u.).

As to “CCGACGCCACCGCCCACGTGTCCTCTCCTCCCACCCGCCACGGAGTCACCTAGTGCAG”, the binding signal is 8880 fluorescence intensity (a.u.).

In the case of “TCTACCCGCCTTCCTTTTAGTCCCCGCGTCTCCACAAAATCGGAGTCACCTAGTGCAG”, the binding signal was 10100 fluorescence intensity (a.u.).

Consider “CAACGTACATGCTACTAAATTTTGATCATTACTGTGCAGTCGGAGTCACCTAGTGCAG”, for which the binding signal was 8120 fluorescence intensity (a.u.).

Consider “CCTCATCCTGGCCGTCCATCCGCTCCAGTTCCGCCTCTTCCGGAGTCACCTAGTGCAG”, for which the binding signal is 13300 fluorescence intensity (a.u.).

On to “ACTTGAATCGAGTTGAAGGTATTCATCTCTCTCTCCTACTCGGAGTCACCTAGTGCAG”, for which the binding signal is 8080 fluorescence intensity (a.u.).

With “GACCAATCAACGCAGCTCTCGTCTCCTCTGTTTATATAAACGGAGTCACCTAGTGCAG”, the binding signal was 9900 fluorescence intensity (a.u.).

For “CTTTCAACTTTTACGTCACATCGTTTCAATTTCAATTAAACGGAGTCACCTAGTGCAG”, the binding signal was 8270 fluorescence intensity (a.u.).

With “AACTGCTGATTGTGATACACATGACCTGAACTCATTTTCTCGGAGTCACCTAGTGCAG”, the binding signal is 9610 fluorescence intensity (a.u.).

As to “TGTTAAATACTCCATTGTTGTTCTGATGGTATTTGCAGCCCGGAGTCACCTAGTGCAG”, the binding signal is 9210 fluorescence intensity (a.u.).

As to “AGGTTCGCCCATGTCAAGCTTATTTTTTCACCGGACACACCGGAGTCACCTAGTGCAG”, the binding signal was 8560 fluorescence intensity (a.u.).

Turning to “TTTTTTCTGCATGCTTTTCGAATTATGAATGACTACATTTCGGAGTCACCTAGTGCAG”, the binding signal was 12000 fluorescence intensity (a.u.).

On to “AATACCAAGTTTATTTCTCACCTGCATTTTAGATTCTCATCGGAGTCACCTAGTGCAG”, for which the binding signal was 9050 fluorescence intensity (a.u.).

As to “AATATGCTAACTCATTTTCCGTAAGTATGTACTATATCCACGGAGTCACCTAGTGCAG”, the binding signal is 8560 fluorescence intensity (a.u.).

In the case of “TCGCATCTTTCCATAGGTCGACAGCAAATCTACCTGCTGTCGGAGTCACCTAGTGCAG”, the binding signal is 8820 fluorescence intensity (a.u.).

For “TAGCTAACATTGGTCCCGGTTTGTATTGCTAGCTTGTTCACGGAGTCACCTAGTGCAG”, the binding signal was 8050 fluorescence intensity (a.u.).

With “TTTTACTGGAGGAATTCTATCCTTACTCATTTTTTTATATCGGAGTCACCTAGTGCAG”, the binding signal is 9400 fluorescence intensity (a.u.).

For “TATTCTATTCTGTCAGTTGACCTTATCCTGCAGACCAGCGCGGAGTCACCTAGTGCAG”, the binding signal was 8040 fluorescence intensity (a.u.).

As for “CCACTACTGGAGTACTAGTCCACTTGACTACTTGTCCATACGGAGTCACCTAGTGCAG”, the binding signal is 8240 fluorescence intensity (a.u.).

Regarding “TCATCGCCCCTTCTCTCTACCCATCCCTCTTGCCAATTTCCGGAGTCACCTAGTGCAG”, the binding signal was 9110 fluorescence intensity (a.u.).

In the case of “TTGACGTTTATGCCAGGTGAAAAAGAAACGCGTTGACCCTCGGAGTCACCTAGTGCAG”, the binding signal was 8890 fluorescence intensity (a.u.).

As to “GCCACATATTTCGTCCGTTTGAGTTTATTTTTTACATGGTCGGAGTCACCTAGTGCAG”, the binding signal was 9780 fluorescence intensity (a.u.).

Consider “ACGTGCCTCTTGCTTAATTTACTCTATTTTAGATCAAGTTCGGAGTCACCTAGTGCAG”, for which the binding signal was 9490 fluorescence intensity (a.u.).

Consider “TTTCCATGTTTGGCATCATCCATTGTGGGATTGTATTTTACGGAGTCACCTAGTGCAG”, for which the binding signal is 9440 fluorescence intensity (a.u.).

As for “GCAACTGACACATGGGTCCTATTGATTTTATTATTTTTTACGGAGTCACCTAGTGCAG”, the binding signal is 9160 fluorescence intensity (a.u.).

For “CCTCTCTCTCTCTCTCTCTCTCTCTCTCTCTCTCTCTCTCCGGAGTCACCTAGTGCAG”, the binding signal is 9700 ± 931 fluorescence intensity (a.u.).

For the sequence “ATTGAGGGAGCAAACCTTTTATTTTTTGTGCGCATATTTTCGGAGTCACCTAGTGCAG”, the binding signal is 8100 fluorescence intensity (a.u.).

“ATAATGTTAACAACCATTCTTTCAAGAACATTTTTCATCTCGGAGTCACCTAGTGCAG”: the binding signal was 8810 fluorescence intensity (a.u.).

For “CGGTCTTTGCCAAATTCCCACTCCGCTTGGCTTTCTGGCCCGGAGTCACCTAGTGCAG”, the binding signal is 8250 fluorescence intensity (a.u.).

Consider “AGGTGAATTTTCCATAGCAATTGCATTGAACTCATCATCACGGAGTCACCTAGTGCAG”, for which the binding signal was 8030 fluorescence intensity (a.u.).

(Values after article PMC7819943, “Rice protein-binding microarrays: a tool to detect cis-acting elements near promoter regions in rice”.)
